Source: the supplement of paper PMC7238544
Where a name gives a salt, the structure may show the parent alone. ± gives the standard deviation of the averaged measurements. The list shows a part of the results. The data scatter; read single values as rough.

Legend:
[1] = system: hAMSC donor 1; test: Hoechst total cell count ratio vs vehicle control; higher = more cells (less toxicity)
[2] = system: hAMSC donor 2; test: as above
[3] = system: hAMSC donor 1; test: transgenic luciferase activity (RLU/mg protein) fold change vs vehicle control (ratio); higher = more transgene expression
[4] = system: hAMSC donor 2; test: as above
[5] = system: hAMSC donor 1; test: transfection efficiency (EGFP+ cells / Hoechst count) fold change vs vehicle control (ratio); hAMSC are human adipose-derived mesenchymal stem cells given an EGFP-luciferase plasmid by lipofection; higher = enhanced transfection
[6] = system: hAMSC donor 2; test: as above
[7] = priming compound concentration 0.2 µM
[8] = priming compound concentration 1.7 µM
[9] = priming compound concentration 13 µM

SMILES	Hoechst total cell count ratio [1, 7]	Hoechst total cell count ratio [1, 8]	Hoechst total cell count ratio [1, 9]	Hoechst total cell count ratio [2, 7]	Hoechst total cell count ratio [2, 8]	Hoechst total cell count ratio [2, 9]	transgenic luciferase activity [3, 7]	transgenic luciferase activity [4, 8]	transfection efficiency [5, 7]	transfection efficiency [5, 8]	transfection efficiency [5, 9]	transfection efficiency [6, 7]	transfection efficiency [6, 8]	transfection efficiency [6, 9]	transgenic luciferase activity [3, 8]	transgenic luciferase activity [4, 9]	transgenic luciferase activity [4, 7]
C[C@@H]1O[C@@H](OC[C@H]2O[C@@H](Oc3c(-c4ccc(O)c(O)c4)oc4cc(O)cc(O)c4c3=O)[C@H](O)[C@@H](O)[C@@H]2O)[C@H](O)[C@H](O)[C@H]1O [Rutin]	1.06 ± 0.064	1.09 ± 0.19	1.34 ± 0.12	1.15 ± 0.027	0.983 ± 0.092	0.796 ± 0.48	0.754 ± 0.056	0.992 ± 0.25	1.23 ± 0.17	0.656 ± 0.29	0.874 ± 0.33	0.918 ± 0.2	1.15 ± 0.42	1 ± 0.33			
CN(C)CC[C@@H](c1ccc(Br)cc1)c1ccccn1 [Dexbrompheniramine maleate]	1.19 ± 0.13	1.06 ± 0.13	1.14 ± 0.17	1.47 ± 0.28	1.08 ± 0.19	0.844 ± 0.036			1.22 ± 0.54	1.63 ± 0.3	1.54 ± 0.45	0.883 ± 0.11	0.97 ± 0.057	1.38 ± 0.17	0.991 ± 0.16	1.1 ± 0.33	
NC(=O)OCC(COC(N)=O)c1ccccc1 [Felbamate]	1.13 ± 0.1	1.29 ± 0.32	1.26 ± 0.16	1.09 ± 0.15	1.53 ± 0.22	0.85 ± 0.13	0.795 ± 0.24	0.454 ± 0.02	0.875 ± 0.2	0.631 ± 0.2	0.956 ± 0.16	0.736 ± 0.0085	0.983 ± 0.1	1.22 ± 0.32			
C=CC1=C(C(=O)O)N2C(=O)[C@@H](NC(=O)/C(=N\OCC(=O)O)c3csc(N)n3)[C@H]2SC1 [Cefixime trihydrate]	1.09 ± 0.11	1.2 ± 0.13	0.777 ± 0.28	1.23 ± 0.28	1.15 ± 0.22	0.277 ± 0.037	0.951 ± 0.35	0.752 ± 0.053	0.982 ± 0.035	0.968 ± 0.17	1.88 ± 0.64	1.15 ± 0.42	1.14 ± 0.28	1.49 ± 0.19			
OCCN1CCN(CCCN2c3ccccc3Sc3ccc(C(F)(F)F)cc32)CC1 [Fluphenazine dihydrochloride]	1.07 ± 0.025	1.19 ± 0.037	1.15 ± 0.078	1.07 ± 0.42	1.09 ± 0.12	1.49 ± 0.25	0.789 ± 0.17	0.946 ± 0.2	1.86 ± 0.12	0.815 ± 0.059	0.94 ± 0.43	1.34 ± 0.51	0.963 ± 0.17	0.687 ± 0.18			
COc1ccccc1N1CCN(CC(O)COc2cccc3ccccc23)CC1 (configuration not stated) [Naftopidil]	1.06 ± 0.2	1.2 ± 0.16	1.2 ± 0.14	1.44 ± 0.54	1.27 ± 0.28	0.944 ± 0.36	0.571 ± 0.18	0.451 ± 0.24	0.877 ± 0.34	0.876 ± 0.32	1.08 ± 0.6	1.11 ± 0.28	1.33 ± 0.18	1.18 ± 0.29			
CNCCCC12CCC(c3ccccc31)c1ccccc12 [Maprotiline hydrochloride]	1.1 ± 0.077	1.11 ± 0.038	1.15 ± 0.032	1.34 ± 0.026	0.989 ± 0.15	1.05 ± 0.13			1.46 ± 0.31	1.57 ± 0.39	1.21 ± 0.29	0.996 ± 0.13	1.13 ± 0.15	0.931 ± 0.065	0.921 ± 0.17	0.962 ± 0.15	
O=c1c(O[C@@H]2O[C@H](CO)[C@@H](O)[C@H](O)[C@H]2O)c(-c2ccc(O)c(O)c2)oc2cc(O)cc(O)c12 [Isoquercitrin]	0.951 ± 0.025	1.02 ± 0.07	0.875 ± 0.058	1.27 ± 0.1	1.29 ± 0.062	1.16 ± 0.16	2.32 ± 0.87		1.33 ± 0.43	0.871 ± 0.38	1.74 ± 0.39	1.19 ± 0.018	0.834 ± 0.12	1.2 ± 0.082			0.927 ± 0.055

Quoted from the listing.
Entry for C=CC1=C(C(=O)O)N2C(=O)[C@@H](NC(=O)/C(=N\OCC(=O)O)c3csc(N)n3)[C@H]2SC1 [Cefixime trihydrate] under Hoechst total cell count ratio [1, 9]: 0.777 ± 0.28
Entry for C[C@@H]1O[C@@H](OC[C@H]2O[C@@H](Oc3c(-c4ccc(O)c(O)c4)oc4cc(O)cc(O)c4c3=O)[C@H](O)[C@@H](O)[C@@H]2O)[C@H](O)[C@H](O)[C@H]1O [Rutin] under transfection efficiency [6, 7]: 0.918 ± 0.2
